Assay results published in paper PMC6508832.
These are yes or no findings as the source states them, for the method shown. Binding seen in cells or lysates may run through a third protein. Here binding means that the protein was enriched with, or labelled near, the bait; the list need not be complete. No binding means not detected with the bait.

Sequences of proteins named here, by UniProt entry; tags and fusion partners are left off. A change or cut given only in a name is not applied to a line headed by its entry. Residues count along the entry.
UniProt Q9STW6: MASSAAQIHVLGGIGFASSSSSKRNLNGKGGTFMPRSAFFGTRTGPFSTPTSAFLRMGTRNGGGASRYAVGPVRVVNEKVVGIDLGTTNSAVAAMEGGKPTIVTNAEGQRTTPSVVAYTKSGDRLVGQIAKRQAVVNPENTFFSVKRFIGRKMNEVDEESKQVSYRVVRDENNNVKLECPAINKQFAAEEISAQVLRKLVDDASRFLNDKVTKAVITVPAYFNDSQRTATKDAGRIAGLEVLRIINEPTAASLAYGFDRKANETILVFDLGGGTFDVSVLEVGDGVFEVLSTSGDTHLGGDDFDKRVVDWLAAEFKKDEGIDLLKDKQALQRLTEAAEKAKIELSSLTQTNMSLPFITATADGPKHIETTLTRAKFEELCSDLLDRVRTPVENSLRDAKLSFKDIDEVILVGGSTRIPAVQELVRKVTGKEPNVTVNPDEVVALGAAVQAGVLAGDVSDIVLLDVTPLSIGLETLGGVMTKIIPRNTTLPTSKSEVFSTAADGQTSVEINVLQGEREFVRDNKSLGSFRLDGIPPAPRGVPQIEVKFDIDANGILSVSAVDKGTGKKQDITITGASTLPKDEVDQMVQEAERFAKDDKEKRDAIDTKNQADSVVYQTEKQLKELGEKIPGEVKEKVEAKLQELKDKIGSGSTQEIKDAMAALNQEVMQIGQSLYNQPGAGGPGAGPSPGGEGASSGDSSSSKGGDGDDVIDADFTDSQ
UniProt Q9FI56, residues 39-929: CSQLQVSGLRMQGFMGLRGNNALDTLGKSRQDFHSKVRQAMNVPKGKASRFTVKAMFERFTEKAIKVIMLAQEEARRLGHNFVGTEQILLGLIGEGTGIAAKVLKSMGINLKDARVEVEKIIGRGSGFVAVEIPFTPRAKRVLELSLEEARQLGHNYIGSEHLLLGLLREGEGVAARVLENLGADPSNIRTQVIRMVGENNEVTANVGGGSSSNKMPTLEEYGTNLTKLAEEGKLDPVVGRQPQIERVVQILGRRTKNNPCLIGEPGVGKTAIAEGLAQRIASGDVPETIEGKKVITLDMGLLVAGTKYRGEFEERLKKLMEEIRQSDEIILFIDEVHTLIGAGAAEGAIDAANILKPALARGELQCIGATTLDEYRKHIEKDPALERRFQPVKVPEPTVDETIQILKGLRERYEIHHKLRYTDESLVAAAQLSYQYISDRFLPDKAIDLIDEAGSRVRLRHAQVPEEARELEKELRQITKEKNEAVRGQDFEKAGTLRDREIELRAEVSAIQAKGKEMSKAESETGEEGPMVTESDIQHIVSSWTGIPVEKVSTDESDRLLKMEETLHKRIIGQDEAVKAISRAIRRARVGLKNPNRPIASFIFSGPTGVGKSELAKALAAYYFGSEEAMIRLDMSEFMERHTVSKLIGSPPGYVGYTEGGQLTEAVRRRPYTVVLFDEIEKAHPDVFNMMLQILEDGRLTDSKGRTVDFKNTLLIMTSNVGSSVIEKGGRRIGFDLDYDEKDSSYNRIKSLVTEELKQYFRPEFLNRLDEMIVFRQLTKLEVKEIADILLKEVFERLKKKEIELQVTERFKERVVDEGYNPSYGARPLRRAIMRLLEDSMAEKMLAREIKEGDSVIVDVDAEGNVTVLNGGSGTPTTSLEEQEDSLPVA

T1: CLPP5‐STREPII (Arabidopsis) (UniProt Q9S834)
T1 sequence: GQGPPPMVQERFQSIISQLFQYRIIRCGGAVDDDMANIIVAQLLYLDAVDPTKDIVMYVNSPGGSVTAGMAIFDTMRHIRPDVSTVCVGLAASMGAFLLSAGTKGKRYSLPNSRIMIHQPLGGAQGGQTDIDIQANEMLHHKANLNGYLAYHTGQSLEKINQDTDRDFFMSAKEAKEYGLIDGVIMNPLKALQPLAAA

T2: CLPP5S193A‐STREPII (Arabidopsis) (UniProt Q9S834)
T2 sequence: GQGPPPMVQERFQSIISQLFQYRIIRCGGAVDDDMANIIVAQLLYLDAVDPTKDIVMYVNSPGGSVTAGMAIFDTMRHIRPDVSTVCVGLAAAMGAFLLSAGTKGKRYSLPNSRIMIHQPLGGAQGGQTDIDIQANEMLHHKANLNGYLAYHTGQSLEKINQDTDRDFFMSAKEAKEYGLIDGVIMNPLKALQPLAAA

T3: CLPP3S164A‐STREPII (Arabidopsis) (UniProt Q9SXJ6)
T3 sequence: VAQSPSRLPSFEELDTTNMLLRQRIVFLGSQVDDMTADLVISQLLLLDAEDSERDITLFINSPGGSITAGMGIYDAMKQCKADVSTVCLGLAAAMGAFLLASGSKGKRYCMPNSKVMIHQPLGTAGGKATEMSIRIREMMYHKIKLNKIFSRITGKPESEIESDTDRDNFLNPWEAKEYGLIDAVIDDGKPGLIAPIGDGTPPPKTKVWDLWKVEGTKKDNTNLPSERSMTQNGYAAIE

T4: CLPP3‐STREPII (Arabidopsis) (UniProt Q9SXJ6)
T4 sequence: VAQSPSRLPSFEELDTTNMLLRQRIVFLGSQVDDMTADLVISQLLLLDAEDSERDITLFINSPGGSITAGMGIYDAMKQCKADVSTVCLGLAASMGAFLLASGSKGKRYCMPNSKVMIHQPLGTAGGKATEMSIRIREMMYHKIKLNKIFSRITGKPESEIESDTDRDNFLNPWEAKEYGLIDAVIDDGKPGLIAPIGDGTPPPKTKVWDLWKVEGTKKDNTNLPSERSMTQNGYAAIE


How the values were obtained:
[1] = target: T1, CLPP5‐STREPII (Arabidopsis); assay: affinity purification with mass spectrometry; StrepTactin column (superflow high capacity resin); total soluble leaf proteins extracted under non‐denaturing conditions with avidin (0.2 mg per g leaf tissue) from clpp5‐1 with CLPP5‐STREPII or heterozygous clpp5‐1 with CLPP5S193A‐STREPII; elution with 5 mM biotin; SDS‐PAGE, trypsin, LTQ‐Orbitrap MS/MS; four purifications for each line
[2] = target: T2, CLPP5S193A‐STREPII (Arabidopsis); assay: as above
[3] = target: T3, CLPP3S164A‐STREPII (Arabidopsis); assay: affinity purification with mass spectrometry; StrepTactin column (superflow high capacity resin); at least 2 mg stromal proteins or 24 mg total leaf proteins extracted under non‐denaturing conditions from clpp3‐1 lines with CLPP3‐STREPII or CLPP3S164A‐STREPII; no avidin; elution with 5 mM biotin; SDS‐PAGE, trypsin, LTQ‐Orbitrap MS/MS; four purifications for each line; wt extract as negative control
[4] = target: T4, CLPP3‐STREPII (Arabidopsis); assay: as above

binding [1]	binding [2]	binding [3]	binding [4]	Molecule
binds	binds	–	–	HSP70‐1 (from UniProt Q9STW6)
binds	binds	binds	binds	CLPC1 (from UniProt Q9FI56 39-929)
no binding	no binding	no binding	no binding	CLPS1 (protein, UniProt Q9SX29 45-159) AALGKGGGVLDKPIIEKTTPGRESEFDLRKSKKIAPPYRVILHNDNFNKREYVVQVLMKVIPGMTVDNAVNIMQEAHINGLAVVIVCAQADAEQHCMQLRGNGLLSSVEPDGGGC
binds	binds	–	–	RUBISCO ACTIVASE (protein, UniProt P10896 59-474) AVKEDKQTDGDRWRGLAYDTSDDQQDITRGKGMVDSVFQAPMGTGTHHAVLSSYEYVSQGLRQYNLDNMMDGFYIAPAFMDKLVVHITKNFLTLPNIKVPLILGIWGGKGQGKSFQCELVMAKMGINPIMMSAGELESGNAGEPAKLIRQRYREAADLIKKGKMCCLFINDLDAGAGRMGGTTQYTVNNQMVNATLMNIADNPTNVQLPGMYNKEENARVPIICTGNDFSTLYAPLIRDGRMEKFYWAPTREDRIGVCKGIFRTDKIKDEDIVTLVDQFPGQSIDFFGALRARVYDDEVRKFVESLGVEKIGKRLVNSREGPPVFEQPEMTYEKLMEYGNMLVMEQENVKRVQLAETYLSQAALGDANADAIGRGTFYGKGAQQVNLPVPEGCTDPVAENFDPTARSDDGTCVYNF
binds	binds	binds	binds	CLPT1 (protein, UniProt Q93WL3 65-238) STVLNVPIAQPENGSSDKIPKWSARAIKSLAMGELEARKLKYPSTGTEAILMGILVEGTSTVAKFLRGNGVTLFKVRDETLSLLGKSDMYFFSPEHPPLTEPAQKAIAWAIDEKNKSDVDGELTTAYLLLGVWSQKDSAGRQILEKLGFNEDKAKEVEKSMNEDVDLSFKKQGQ
–	binds	–	–	FRUCTOSE‐BISPHOSPHATASE (enzyme, UniProt P25851 60-417) AVAADAAETKTAARKKSGYELQTLTGWLLRQEMKGEIDAELTIVMSSISLACKQIASLVQRAGISNLTGVQGAVNIQGEDQKKLDVISNEVFSNCLRSSGRTGIIASEEEDVPVAVEESYSGNYVVVFDPLDGSSNIDAAVSTGSIFGIYSPNDECIVDDSDDISALGSEEQRCIVNVCQPGNNLLAAGYCMYSSSVIFVLTLGKGVFSFTLDPMYGEFVLTQENIEIPKAGRIYSFNEGNYQMWDDKLKKYIDDLKDPGPTGKPYSARYIGSLVGDFHRTLLYGGIYGYPRDAKSKNGKLRLLYECAPMSFIVEQAGGKGSDGHSRVLDIQPTEIHQRVPLYIGSTEEVEKLEKYLA
